PubChem BioAssay AID602196 | INSERM – 2012
Assay: 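Genes whose knock-down alters cisplatin killing of lung cancer cells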. System: human A549 lung cancer cells. Knock-down reagent: siRNA pair against human genes. Duration: 48 h transfection before cisplatin; time from cisplatin to read-out not stated. Conditions: cisplatin at a dose killing half of control-siRNA cells; exact dose and duration not given. Read-out: 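Cisplatin cell death as a shift from the 50% death seen with control siRNA; siRNAs toxic or growth-blocking alone scored 0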. Direction: two-siRNA summed score (-2 to +2): higher = both siRNAs protect from cisplatin killing; -2 means both sensitise. Active means: 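siRNAs harmful alone (LDH or WST-1) get 0; others get +1 for less and -1 for more cisplatin killing; genes are active when the two siRNAs give the same sign, summing to ±2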. Meaning of the calls: active = both siRNAs shift cisplatin killing the same way; inactive = no consistent shift, or siRNA harmful alone.
Here is an unselected part of about 23,000 deposited reagents. Of all reagents, 455 (2%) are marked active. 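Active includes both protection and sensitisation; some change values fall well beyond the stated -50 to +50 range.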 Further read-outs or replicates are left out here. Reagent sequences are not shown. The record does not give: the amount of reagent.

With knock-down of TRMT11 [SID131516433], the record shows two-siRNA summed score (-2 to +2) = 0; inactive.
With knock-down of TIMM17B [SID131519104], the record shows two-siRNA summed score (-2 to +2) = 1; inactive.
Against LSM14B [SID131511595], the entry reads two-siRNA summed score (-2 to +2) = 0; inactive.
Silencing of SAP30L-AS1 [SID131513157] came out at: two-siRNA summed score (-2 to +2) = 0; inactive.
For STARD6 [SID131515307], the entry reads two-siRNA summed score (-2 to +2) = 0; inactive.
Silencing of IL1R1 [SID131500827] gave: two-siRNA summed score (-2 to +2) = -1; inactive.
Silencing of ORC2 [SID131514337] gave: two-siRNA summed score (-2 to +2) = 0; inactive.
With knock-down of LOC152663 [SID131504850], the screen gave two-siRNA summed score (-2 to +2) = 0; inactive.
Knock-down of ADD2 [SID131506969] gave: two-siRNA summed score (-2 to +2) = 0; inactive.
After knock-down of PYM1 [SID131504390] the results were two-siRNA summed score (-2 to +2) = 0; inactive.
LOC389233 [SID131513636] scored two-siRNA summed score (-2 to +2) = 0; inactive.
Against LOC256096 [SID131514006], the entry reads two-siRNA summed score (-2 to +2) = 0; inactive.
Against PDE4C [SID131511526] the deposit lists two-siRNA summed score (-2 to +2) = 0; inactive.
Knock-down of LOC157813 [SID131518462] came out at: two-siRNA summed score (-2 to +2) = 0; inactive.
DDRGK1 [SID131520286] showed two-siRNA summed score (-2 to +2) = 1; inactive.
After knock-down of TEX35 [SID131514399], the record shows two-siRNA summed score (-2 to +2) = 0; inactive.
LINC02873 [SID131503586] gave two-siRNA summed score (-2 to +2) = 0; inactive.
LOC442454 [SID131514164] gave two-siRNA summed score (-2 to +2) = 0; inactive.
Knock-down of LOC441380 [SID131520107] resulted in: two-siRNA summed score (-2 to +2) = 1; inactive.
After knock-down of LOC130678 [SID131514315] the results were two-siRNA summed score (-2 to +2) = 0; inactive.
With knock-down of CLCA3P [SID131507020] the results were two-siRNA summed score (-2 to +2) = 0; inactive.
With knock-down of OR2D3 [SID131511249] the results were two-siRNA summed score (-2 to +2) = 0; inactive.
ABCG5 [SID131519390] scored two-siRNA summed score (-2 to +2) = 1; inactive.
Against SEL1L3 [SID131506241], the values are two-siRNA summed score (-2 to +2) = 0; inactive.
ACSL6 [SID131506011] scored two-siRNA summed score (-2 to +2) = 0; inactive.
Depletion of LRRC31 [SID131501452] gave: two-siRNA summed score (-2 to +2) = -1; inactive.
PNRC2 [SID131511648] scored two-siRNA summed score (-2 to +2) = 0; inactive.
DEPP1 [SID131519446] scored two-siRNA summed score (-2 to +2) = 1; inactive.
After knock-down of DCLK1 [SID131517284], the record shows two-siRNA summed score (-2 to +2) = 0; inactive.
After knock-down of PC [SID131503895], the record shows two-siRNA summed score (-2 to +2) = 0; inactive.
TCERG1L [SID131518216] showed two-siRNA summed score (-2 to +2) = 0; inactive.
